The supplement of paper PMC9233669
Variants at the background level are over-represented here.

How the values were obtained:
biotinyl-Leu-oxazolone = experiment: self-aminoacylation, catalytic enhancement (BLO) (fold over background); higher = more active; k-Seq, kA / k0A0; sequences stand for … in GGGAAUGGAUCCACAUCUACGAAUUC…UUCACUGCAGACUUGACGAAGCUG
Outline: (§1)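 The uncatalyzed rate is the low-activity peak of a bimodal Gaussian fit, and catalytic enhancement is median kA divided by it. The kA values came from pseudo-first-order fits, with 1000 bootstraps, of per-sequence fraction reacted measured by streptavidin capture, triplicate qPCR and Illumina sequencing. Mutagenized RNA pools with a 21-nt variable region (0.43 μM) were reacted with each biotinyl-aminoacyl-oxazolone at 2–1250 μM in 50 μL HEPES/NaCl/KCl/MgCl2/CaCl2 buffer with 5% acetonitrile, pH 6.9–7.0, for 90 minutes at room temperature.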

biotinyl-Val-oxazolone = experiment: self-aminoacylation, catalytic enhancement (BVO) (fold over background); higher = more active; k-Seq, kA / k0A0; sequences stand for … in GGGAAUGGAUCCACAUCUACGAAUUC…UUCACUGCAGACUUGACGAAGCUG
Outline: as §1

biotinyl-Ile-oxazolone = experiment: self-aminoacylation, catalytic enhancement (BIO) (fold over background); higher = more active; k-Seq, kA / k0A0; sequences stand for … in GGGAAUGGAUCCACAUCUACGAAUUC…UUCACUGCAGACUUGACGAAGCUG
Outline: as §1

biotinyl-Trp-oxazolone = experiment: self-aminoacylation, catalytic enhancement (BWO) (fold over background); higher = more active; k-Seq, kA / k0A0; sequences stand for … in GGGAAUGGAUCCACAUCUACGAAUUC…UUCACUGCAGACUUGACGAAGCUG
Outline: as §1

biotinyl-Met-oxazolone = experiment: self-aminoacylation, catalytic enhancement (BMO) (fold over background); higher = more active; k-Seq, kA / k0A0; sequences stand for … in GGGAAUGGAUCCACAUCUACGAAUUC…UUCACUGCAGACUUGACGAAGCUG
Outline: as §1

“AAGUUUGCUAAUCGACGCAAG [Fam3.1 aminoacylation ribozyme variant]” showed a self-aminoacylation (biotinyl-Leu-oxazolone) of 0.477, a self-aminoacylation (biotinyl-Val-oxazolone) of 0.547 and a self-aminoacylation (biotinyl-Ile-oxazolone) of 0.534. For the same sequence, the self-aminoacylation (biotinyl-Trp-oxazolone) was 0.72 and the self-aminoacylation (biotinyl-Met-oxazolone) was 0.581.

“AAGUUUGCUGAUAGUCGCAGG [Fam3.1 aminoacylation ribozyme variant]” gave a self-aminoacylation (biotinyl-Leu-oxazolone) of 1.9, a self-aminoacylation (biotinyl-Val-oxazolone) of 1.33 and a self-aminoacylation (biotinyl-Ile-oxazolone) of 1.48. The self-aminoacylation (biotinyl-Trp-oxazolone) was 1.83 and the self-aminoacylation (biotinyl-Met-oxazolone) was 1.99.

In the case of “AAGUUUUCUAAUAGUCGAAAG [Fam3.1 aminoacylation ribozyme variant]”, the self-aminoacylation (biotinyl-Leu-oxazolone) is reported as 0.996, the self-aminoacylation (biotinyl-Val-oxazolone) is reported as 1.04 and the self-aminoacylation (biotinyl-Ile-oxazolone) is reported as 1.24. The self-aminoacylation (biotinyl-Trp-oxazolone) was 1.39 and the self-aminoacylation (biotinyl-Met-oxazolone) was 1.05.

For “AAGUUUUCUUAUAGUCGCAAG [Fam3.1 aminoacylation ribozyme variant]”, the self-aminoacylation (biotinyl-Leu-oxazolone) was 1.75, the self-aminoacylation (biotinyl-Val-oxazolone) was 1.46 and the self-aminoacylation (biotinyl-Ile-oxazolone) was 1.86. It also gave a self-aminoacylation (biotinyl-Trp-oxazolone) of 1.81 and a self-aminoacylation (biotinyl-Met-oxazolone) of 1.54.

In the case of “ACACACUUCAAGCAAUAGGUC [Fam1B.1 aminoacylation ribozyme variant]”, the self-aminoacylation (biotinyl-Leu-oxazolone) is reported as 0.737, the self-aminoacylation (biotinyl-Val-oxazolone) is reported as 0.976 and the self-aminoacylation (biotinyl-Ile-oxazolone) is reported as 0.894. It also gave a self-aminoacylation (biotinyl-Trp-oxazolone) of 0.901 and a self-aminoacylation (biotinyl-Met-oxazolone) of 0.828.

“ACGUUUCCUAAUAGUCGCAAG [Fam3.1 aminoacylation ribozyme variant]” showed a self-aminoacylation (biotinyl-Leu-oxazolone) of 1.08, a self-aminoacylation (biotinyl-Val-oxazolone) of 1.21 and a self-aminoacylation (biotinyl-Ile-oxazolone) of 1.61. It also gave a self-aminoacylation (biotinyl-Trp-oxazolone) of 1.3 and a self-aminoacylation (biotinyl-Met-oxazolone) of 1.33.

For “AGGUUUGCUAAUAGUCGCAUG [Fam3.1 aminoacylation ribozyme variant]”, the self-aminoacylation (biotinyl-Leu-oxazolone) was 1.64, the self-aminoacylation (biotinyl-Val-oxazolone) was 1.28 and the self-aminoacylation (biotinyl-Ile-oxazolone) was 1.62. The self-aminoacylation (biotinyl-Trp-oxazolone) was 1.7 and the self-aminoacylation (biotinyl-Met-oxazolone) was 1.73.

“AGGUUUGCUUAUAGUCGCAAG [Fam3.1 aminoacylation ribozyme variant]” gave a self-aminoacylation (biotinyl-Leu-oxazolone) of 1.53, a self-aminoacylation (biotinyl-Val-oxazolone) of 1.43 and a self-aminoacylation (biotinyl-Ile-oxazolone) of 1.63. The self-aminoacylation (biotinyl-Trp-oxazolone) was 1.68 and the self-aminoacylation (biotinyl-Met-oxazolone) was 1.88.

“AGUACCCUGGUCAUCGCGUGA [Fam2.1 aminoacylation ribozyme variant]” was tested, and the self-aminoacylation (biotinyl-Leu-oxazolone) was 20.3, the self-aminoacylation (biotinyl-Val-oxazolone) was 12.2 and the self-aminoacylation (biotinyl-Ile-oxazolone) was 8.36. It also gave a self-aminoacylation (biotinyl-Trp-oxazolone) of 20.5 and a self-aminoacylation (biotinyl-Met-oxazolone) of 19.4.

Sequence “AUACUUCAAACAAUCGGUCUA [Fam1A.1 aminoacylation ribozyme variant]” has a self-aminoacylation (biotinyl-Leu-oxazolone) of 0.564, a self-aminoacylation (biotinyl-Val-oxazolone) of 0.674 and a self-aminoacylation (biotinyl-Ile-oxazolone) of 0.636. The self-aminoacylation (biotinyl-Trp-oxazolone) was 1.9 and the self-aminoacylation (biotinyl-Met-oxazolone) was 0.503.

In the case of “AUGAACCUAGGUCAUCGGGUG [Fam2.2 aminoacylation ribozyme variant]”, the self-aminoacylation (biotinyl-Leu-oxazolone) is reported as 7.54, the self-aminoacylation (biotinyl-Val-oxazolone) is reported as 4.28 and the self-aminoacylation (biotinyl-Ile-oxazolone) is reported as 4.29. It also gave a self-aminoacylation (biotinyl-Trp-oxazolone) of 6.44 and a self-aminoacylation (biotinyl-Met-oxazolone) of 5.97.

“AUGCACCUAGGUCAUCGGGUC [Fam2.2 aminoacylation ribozyme variant]” showed a self-aminoacylation (biotinyl-Leu-oxazolone) of 1.28, a self-aminoacylation (biotinyl-Val-oxazolone) of 1.64 and a self-aminoacylation (biotinyl-Ile-oxazolone) of 1.26. It also gave a self-aminoacylation (biotinyl-Trp-oxazolone) of 1.96 and a self-aminoacylation (biotinyl-Met-oxazolone) of 1.05.

With “AUGCACUUAGGUCAUCGGGUG [Fam2.2 aminoacylation ribozyme variant]” the self-aminoacylation (biotinyl-Leu-oxazolone) was 10.6, the self-aminoacylation (biotinyl-Val-oxazolone) was 5.03 and the self-aminoacylation (biotinyl-Ile-oxazolone) was 5.29. The self-aminoacylation (biotinyl-Trp-oxazolone) was 7.92 and the self-aminoacylation (biotinyl-Met-oxazolone) was 8.73.

Sequence “AUUAACCUAGGUCAUCGUGUG [Fam2.2 aminoacylation ribozyme variant]” has a self-aminoacylation (biotinyl-Leu-oxazolone) of 0.935, a self-aminoacylation (biotinyl-Val-oxazolone) of 0.862 and a self-aminoacylation (biotinyl-Ile-oxazolone) of 0.901. For the same sequence, the self-aminoacylation (biotinyl-Trp-oxazolone) was 0.605 and the self-aminoacylation (biotinyl-Met-oxazolone) was 1.03.

“AUUACCCGGGUCGUCGAGUGA [Fam2.1 aminoacylation ribozyme variant]” gave a self-aminoacylation (biotinyl-Leu-oxazolone) of 1.23, a self-aminoacylation (biotinyl-Val-oxazolone) of 1.37 and a self-aminoacylation (biotinyl-Ile-oxazolone) of 1.51. It also gave a self-aminoacylation (biotinyl-Trp-oxazolone) of 1.46 and a self-aminoacylation (biotinyl-Met-oxazolone) of 1.1.

With “AUUACCCUGGGCAACGAGUGA [Fam2.1 aminoacylation ribozyme variant]” the self-aminoacylation (biotinyl-Leu-oxazolone) was 10.3, the self-aminoacylation (biotinyl-Val-oxazolone) was 4 and the self-aminoacylation (biotinyl-Ile-oxazolone) was 3.81. For the same sequence, the self-aminoacylation (biotinyl-Trp-oxazolone) was 10.3 and the self-aminoacylation (biotinyl-Met-oxazolone) was 7.64.

“AUUACCCUGGGCAUCGUGUGA [Fam2.1 aminoacylation ribozyme variant]” showed a self-aminoacylation (biotinyl-Leu-oxazolone) of 1.58, a self-aminoacylation (biotinyl-Val-oxazolone) of 0.981 and a self-aminoacylation (biotinyl-Ile-oxazolone) of 0.861. The self-aminoacylation (biotinyl-Trp-oxazolone) was 1.93 and the self-aminoacylation (biotinyl-Met-oxazolone) was 1.09.

Sequence “AUUACCCUGGUCAGCGAGUGC [Fam2.1 aminoacylation ribozyme variant]” has a self-aminoacylation (biotinyl-Leu-oxazolone) of 1.93, a self-aminoacylation (biotinyl-Val-oxazolone) of 1.43 and a self-aminoacylation (biotinyl-Ile-oxazolone) of 1.25. For the same sequence, the self-aminoacylation (biotinyl-Trp-oxazolone) was 1.42 and the self-aminoacylation (biotinyl-Met-oxazolone) was 1.77.

“AUUACCCUGGUCAUCGAGAGG [Fam2.1 aminoacylation ribozyme variant]” was tested, and the self-aminoacylation (biotinyl-Leu-oxazolone) was 1.18, the self-aminoacylation (biotinyl-Val-oxazolone) was 1.08 and the self-aminoacylation (biotinyl-Ile-oxazolone) was 0.663. For the same sequence, the self-aminoacylation (biotinyl-Trp-oxazolone) was 0.95 and the self-aminoacylation (biotinyl-Met-oxazolone) was 1.45.

For “AUUACCCUGGUGAUCGUGUGA [Fam2.1 aminoacylation ribozyme variant]”, the self-aminoacylation (biotinyl-Leu-oxazolone) was 1.67, the self-aminoacylation (biotinyl-Val-oxazolone) was 1.21 and the self-aminoacylation (biotinyl-Ile-oxazolone) was 1.34. It also gave a self-aminoacylation (biotinyl-Trp-oxazolone) of 1.99 and a self-aminoacylation (biotinyl-Met-oxazolone) of 1.48.

In the case of “AUUACCGUGGUCAUCGAGUGU [Fam2.1 aminoacylation ribozyme variant]”, the self-aminoacylation (biotinyl-Leu-oxazolone) is reported as 3.51, the self-aminoacylation (biotinyl-Val-oxazolone) is reported as 2.46 and the self-aminoacylation (biotinyl-Ile-oxazolone) is reported as 1.89. It also gave a self-aminoacylation (biotinyl-Trp-oxazolone) of 4.27 and a self-aminoacylation (biotinyl-Met-oxazolone) of 3.17.

“AUUCACAUAGGUGAUCGGGUG [Fam2.2 aminoacylation ribozyme variant]” showed a self-aminoacylation (biotinyl-Leu-oxazolone) of 3.56, a self-aminoacylation (biotinyl-Val-oxazolone) of 3.14 and a self-aminoacylation (biotinyl-Ile-oxazolone) of 3.05. For the same sequence, the self-aminoacylation (biotinyl-Trp-oxazolone) was 3.79 and the self-aminoacylation (biotinyl-Met-oxazolone) was 3.4.

“AUUCACCAAGGUCAUCGGGUC [Fam2.2 aminoacylation ribozyme variant]” was tested, and the self-aminoacylation (biotinyl-Leu-oxazolone) was 1.67, the self-aminoacylation (biotinyl-Val-oxazolone) was 1.26 and the self-aminoacylation (biotinyl-Ile-oxazolone) was 1.38. It also gave a self-aminoacylation (biotinyl-Trp-oxazolone) of 0.64 and a self-aminoacylation (biotinyl-Met-oxazolone) of 1.22.

Sequence “AUUCACCAAGGUCAUCGUGUG [Fam2.2 aminoacylation ribozyme variant]” has a self-aminoacylation (biotinyl-Leu-oxazolone) of 1.29, a self-aminoacylation (biotinyl-Val-oxazolone) of 1.1 and a self-aminoacylation (biotinyl-Ile-oxazolone) of 1.05. It also gave a self-aminoacylation (biotinyl-Trp-oxazolone) of 1.12 and a self-aminoacylation (biotinyl-Met-oxazolone) of 1.29.

Sequence “AUUCACCUACGUCAUCGGCUG [Fam2.2 aminoacylation ribozyme variant]” has a self-aminoacylation (biotinyl-Leu-oxazolone) of 1.18, a self-aminoacylation (biotinyl-Val-oxazolone) of 1.38 and a self-aminoacylation (biotinyl-Ile-oxazolone) of 1.32. For the same sequence, the self-aminoacylation (biotinyl-Trp-oxazolone) was 1.49 and the self-aminoacylation (biotinyl-Met-oxazolone) was 1.33.

For “AUUCACCUAGGACAUCGUGUG [Fam2.2 aminoacylation ribozyme variant]”, the self-aminoacylation (biotinyl-Leu-oxazolone) was 1.39, the self-aminoacylation (biotinyl-Val-oxazolone) was 0.784 and the self-aminoacylation (biotinyl-Ile-oxazolone) was 0.833. For the same sequence, the self-aminoacylation (biotinyl-Trp-oxazolone) was 0.572 and the self-aminoacylation (biotinyl-Met-oxazolone) was 0.928.

For “AUUCACCUAGGUAAUCGAGUG [Fam2.2 aminoacylation ribozyme variant]”, the self-aminoacylation (biotinyl-Leu-oxazolone) was 1.61, the self-aminoacylation (biotinyl-Val-oxazolone) was 1.22 and the self-aminoacylation (biotinyl-Ile-oxazolone) was 1.14. It also gave a self-aminoacylation (biotinyl-Trp-oxazolone) of 0.974 and a self-aminoacylation (biotinyl-Met-oxazolone) of 1.52.

Sequence “AUUCACCUAGGUCAUCAUGUG [Fam2.2 aminoacylation ribozyme variant]” has a self-aminoacylation (biotinyl-Leu-oxazolone) of 1.64, a self-aminoacylation (biotinyl-Val-oxazolone) of 1.1 and a self-aminoacylation (biotinyl-Ile-oxazolone) of 1.06. It also gave a self-aminoacylation (biotinyl-Trp-oxazolone) of 1.03 and a self-aminoacylation (biotinyl-Met-oxazolone) of 1.44.
